Results taken from publication PMC12858346.
Results are given in words; binding and its absence hold for the method and conditions named. In cells and extracts the contact can be indirect. Some entries that bind do so weakly or less than the wild type.

Amino acid sequences for entries named in this document (tags omitted). A change or cut given only in a name is not applied to a line headed by its entry. Residues count along the entry.
UniProt Q9UM54: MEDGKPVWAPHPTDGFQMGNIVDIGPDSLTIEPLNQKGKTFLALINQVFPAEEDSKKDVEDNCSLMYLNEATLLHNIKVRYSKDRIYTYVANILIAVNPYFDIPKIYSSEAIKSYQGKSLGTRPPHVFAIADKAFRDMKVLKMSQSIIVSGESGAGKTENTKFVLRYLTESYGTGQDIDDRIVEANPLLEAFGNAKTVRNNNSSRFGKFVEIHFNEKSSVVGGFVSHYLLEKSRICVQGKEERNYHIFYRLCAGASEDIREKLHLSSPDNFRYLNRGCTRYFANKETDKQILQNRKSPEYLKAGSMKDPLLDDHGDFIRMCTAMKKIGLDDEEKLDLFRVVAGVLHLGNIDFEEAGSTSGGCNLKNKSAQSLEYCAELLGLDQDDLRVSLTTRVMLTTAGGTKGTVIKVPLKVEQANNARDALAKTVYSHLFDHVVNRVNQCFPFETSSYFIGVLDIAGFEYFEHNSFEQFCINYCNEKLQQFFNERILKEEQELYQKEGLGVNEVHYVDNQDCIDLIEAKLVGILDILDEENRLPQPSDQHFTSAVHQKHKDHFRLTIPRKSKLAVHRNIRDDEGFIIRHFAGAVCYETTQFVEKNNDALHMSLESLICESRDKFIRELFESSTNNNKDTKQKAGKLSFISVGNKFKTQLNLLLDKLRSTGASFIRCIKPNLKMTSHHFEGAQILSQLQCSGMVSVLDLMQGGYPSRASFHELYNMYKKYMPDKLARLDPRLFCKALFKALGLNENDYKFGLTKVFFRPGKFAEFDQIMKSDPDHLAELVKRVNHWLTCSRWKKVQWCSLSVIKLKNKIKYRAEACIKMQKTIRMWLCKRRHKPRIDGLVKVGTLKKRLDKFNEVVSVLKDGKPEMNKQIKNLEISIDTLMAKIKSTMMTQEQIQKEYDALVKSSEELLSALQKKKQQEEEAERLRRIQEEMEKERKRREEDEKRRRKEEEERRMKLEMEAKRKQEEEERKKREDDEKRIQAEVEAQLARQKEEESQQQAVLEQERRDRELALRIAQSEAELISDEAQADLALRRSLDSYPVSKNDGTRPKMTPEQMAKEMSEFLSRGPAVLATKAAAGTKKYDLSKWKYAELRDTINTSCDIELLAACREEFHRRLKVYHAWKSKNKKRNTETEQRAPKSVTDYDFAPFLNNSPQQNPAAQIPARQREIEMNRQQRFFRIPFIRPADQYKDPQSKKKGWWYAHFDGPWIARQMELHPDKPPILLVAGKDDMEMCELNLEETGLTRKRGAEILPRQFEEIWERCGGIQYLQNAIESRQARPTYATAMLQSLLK
eGFP-myosin VI-ΔMotor (1-729): residues 730-1294 of Q9UM54
UniProt P10275: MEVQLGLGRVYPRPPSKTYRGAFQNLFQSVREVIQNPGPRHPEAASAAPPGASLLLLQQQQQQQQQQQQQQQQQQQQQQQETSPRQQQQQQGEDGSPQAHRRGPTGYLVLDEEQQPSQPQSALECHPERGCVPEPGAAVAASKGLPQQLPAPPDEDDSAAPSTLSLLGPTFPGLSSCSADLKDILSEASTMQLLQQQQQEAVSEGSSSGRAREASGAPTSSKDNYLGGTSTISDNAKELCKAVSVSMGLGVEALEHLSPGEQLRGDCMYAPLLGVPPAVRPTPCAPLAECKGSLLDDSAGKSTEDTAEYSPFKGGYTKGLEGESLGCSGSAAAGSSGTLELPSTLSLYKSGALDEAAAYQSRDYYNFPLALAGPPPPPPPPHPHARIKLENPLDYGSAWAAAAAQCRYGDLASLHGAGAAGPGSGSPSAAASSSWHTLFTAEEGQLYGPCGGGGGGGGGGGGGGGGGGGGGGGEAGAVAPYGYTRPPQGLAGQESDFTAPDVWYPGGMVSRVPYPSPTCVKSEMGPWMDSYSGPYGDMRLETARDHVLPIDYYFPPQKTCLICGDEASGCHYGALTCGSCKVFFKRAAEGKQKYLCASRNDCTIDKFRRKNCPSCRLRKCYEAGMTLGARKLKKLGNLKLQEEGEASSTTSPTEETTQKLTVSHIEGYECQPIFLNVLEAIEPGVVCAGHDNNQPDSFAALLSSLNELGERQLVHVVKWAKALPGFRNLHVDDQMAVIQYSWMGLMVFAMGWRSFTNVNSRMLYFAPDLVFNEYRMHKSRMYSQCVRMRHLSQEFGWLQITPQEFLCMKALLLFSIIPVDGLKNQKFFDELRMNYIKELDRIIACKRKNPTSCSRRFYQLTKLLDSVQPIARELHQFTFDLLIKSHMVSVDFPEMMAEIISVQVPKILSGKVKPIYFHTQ
UniProt P46937: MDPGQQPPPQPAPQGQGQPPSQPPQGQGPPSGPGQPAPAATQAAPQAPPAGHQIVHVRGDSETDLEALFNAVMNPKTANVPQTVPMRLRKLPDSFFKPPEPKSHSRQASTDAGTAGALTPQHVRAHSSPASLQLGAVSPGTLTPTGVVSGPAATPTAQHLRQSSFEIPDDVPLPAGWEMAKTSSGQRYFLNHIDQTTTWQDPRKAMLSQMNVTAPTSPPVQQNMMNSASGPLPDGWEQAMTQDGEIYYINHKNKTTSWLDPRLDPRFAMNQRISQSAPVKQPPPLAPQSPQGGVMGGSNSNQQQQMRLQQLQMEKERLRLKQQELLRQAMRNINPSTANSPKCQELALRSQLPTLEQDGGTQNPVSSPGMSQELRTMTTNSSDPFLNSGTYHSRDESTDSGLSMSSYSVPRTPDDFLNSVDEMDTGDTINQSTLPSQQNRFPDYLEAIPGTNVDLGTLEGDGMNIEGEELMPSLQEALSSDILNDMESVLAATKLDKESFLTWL

B1: disheveled-associated activator of morphogenesis 2 (DAAM2), endogenous in LNCaP cells (protein, UniProt Q86T65 1-1068)
chain: MAPRKRSHHGLGFLCCFGGSDIPEINLRDNHPLQFMEFSSPIPNAEELNIRFAELVDELDLTDKNREAMFALPPEKKWQIYCSKKKEQEDPNKLATSWPDYYIDRINSMAAMQSLYAFDEEETEMRNQVVEDLKTALRTQPMRFVTRFIELEGLTCLLNFLRSMDHATCESRIHTSLIGCIKALMNNSQGRAHVLAQPEAISTIAQSLRTENSKTKVAVLEILGAVCLVPGGHKKVLQAMLHYQVYAAERTRFQTLLNELDRSLGRYRDEVNLKTAIMSFINAVLNAGAGEDNLEFRLHLRYEFLMLGIQPVIDKLRQHENAILDKHLDFFEMVRNEDDLELARRFDMVHIDTKSASQMFELIHKKLKYTEAYPCLLSVLHHCLQMPYKRNGGYFQQWQLLDRILQQIVLQDERGVDPDLAPLENFNVKNIVNMLINENEVKQWRDQAEKFRKEHMELVSRLERKERECETKTLEKEEMMRTLNKMKDKLARESQELRQARGQVAELVAQLSELSTGPVSSPPPPGGPLTLSSSMTTNDLPPPPPPLPFACCPPPPPPPLPPGGPPTPPGAPPCLGMGLPLPQDPYPSSDVPLRKKRVPQPSHPLKSFNWVKLNEERVPGTVWNEIDDMQVFRILDLEDFEKMFSAYQRHQKELGSTEDIYLASRKVKELSVIDGRRAQNCIILLSKLKLSNEEIRQAILKMDEQEDLAKDMLEQLLKFIPEKSDIDLLEEHKHEIERMARADRFLYEMSRIDHYQQRLQALFFKKKFQERLAEAKPKVEAILLASRELVRSKRLRQMLEVILAIGNFMNKGQRGGAYGFRVASLNKIADTKSSIDRNISLLHYLIMILEKHFPDILNMPSELQHLPEAAKVNLAELEKEVGNLRRGLRAVEVELEYQRRQVREPSDKFVPVMSDFITVSSFSFSELEDQLNEARDKFAKALMHFGEHDSKMQPDEFFGIFDTFLQAFSEARQDLEAMRRRKEEEERRARMEAMLKEQRERERWQRQRKVLAAGSSLEEGGEFDDLVSALRSGEVFDKDLCKLKRSRKRSGSQALEVTRERAINRLNY
B2: Disabled-2 (Dab2) (protein, UniProt P98082 1-770)
chain: MSNEVETSATNGQPDQQAAPKAPSKKEKKKGPEKTDEYLLARFKGDGVKYKAKLIGIDDVPDARGDKMSQDSMMKLKGMAAAGRSQGQHKQRIWVNISLSGIKIIDEKTGVIEHEHPVNKISFIARDVTDNRAFGYVCGGEGQHQFFAIKTGQQAEPLVVDLKDLFQVIYNVKKKEEEKKKIEEASKAVENGSEALMILDDQTNKLKSGVDQMDLFGDMSTPPDLNSPTESKDILLVDLNSEIDTNQNSLRENPFLTNGITSCSLPRPTPQASFLPENAFSANLNFFPTPNPDPFRDDPFTQPDQSTPSSFDSLKSPDQKKENSSSSSTPLSNGPLNGDVDYFGQQFDQISNRTGKQEAQAGPWPFSSSQTQPAVRTQNGVSEREQNGFSVKSSPNPFVGSPPKGLSIQNGVKQDLESSVQSSPHDSIAIIPPPQSTKPGRGRRTAKSSANDLLASDIFAPPVSEPSGQASPTGQPTALQPNPLDLFKTSAPAPVGPLVGLGGVTVTLPQAGPWNTASLVFNQSPSMAPGAMMGGQPSGFSQPVIFGTSPAVSGWNQPSPFAASTPPPVPVVWGPSASVAPNAWSTTSPLGNPFQSNIFPAPAVSTQPPSMHSSLLVTPPQPPPRAGPPKDISSDAFTALDPLGDKEIKDVKEMFKDFQLRQPPAVPARKGEQTSSGTLSAFASYFNSKVGIPQENADHDDFDANQLLNKINEPPKPAPRQVSLPVTKSTDNAFENPFFKDSFGSSQASVASSQPVSSEMYRDPFGNPFA

How the values were obtained:
[1] = target: eGFP-myosin VI-ΔMotor (1-729) (UniProt Q9UM54); assay: co-IP; GFP-Trap immunoprecipitation from lysates of HeLa cells co-expressing BFP-AR with eGFP-myosin VI, eGFP-myosin VI-ΔMotor (1-729) or eGFP alone; EtOH or DHT; Western blot for AR and GFP
[2] = target: eGFP-myosin VI (full-length), expressed in HeLa cells (UniProt Q9UM54); assay: as above
[3] = target: myosin VI, endogenous in LNCaP cells (human (endogenous in LNCaP)) (UniProt Q9UM54); assay: proximity ligation; Duolink PLA on endogenous proteins in LNCaP cells, pre-extracted with CSK buffer and fixed; EtOH, 10 nM DHT 24 h, DHT + TIP 1 h or DHT + siMyo6; nuclear PLA foci counted

Row | Molecule | binding [1] | binding [2] | binding [3]
1 | blue fluorescent protein (BFP)-AR (from UniProt P10275 1-920) (receptor) | no binding | binds | –
2 | Yes-associated protein (YAP) (from UniProt P46937 1-504) | – | – | no binding
3 | B1 | – | – | binds
4 | B2 | – | – | binds
